# Measured values from PubChem BioAssay AID2318 (National Center for Advancing Translational Sciences (NCATS), 2010).
# Inconclusive results, whose numbers are uncertain, are shown with a selection of clear calls. Potencies of inconclusive entries are doubtful fits and often do not repeat. Activity calls are given as the source filed them. Calls come from the whole dose curve.
# Experiment: Cycloheximide Counterscreen for Small Molecule Inhibitors of Shiga Toxin (Confirmatory)
# Settings: protein synthesis reporter, Shiga toxin assay; series mostly up to 38.3 µM
# Potency is the fitted concentration of half-maximal effect.
row,Structure (SMILES),Potency
1,Cc1cc(C(=O)COC(=O)C2CC2)c(C)n1-c1ccc(F)cc1,active: 2 µM
2,CC(Oc1ccc(F)cc1Br)c1nc2ccccc2c(=O)[nH]1 (stereo unspecified),"inconclusive: 28.3 µM [activator, partial curve, poor fit]"
3,COc1ccc2[nH]c(-c3ccccc3)cc(=O)c2c1,"inconclusive: 15.9 µM [activator, partial curve, poor fit]"
4,CCCCC1(C)Nc2ccccc2-c2nc3ccccc3n21 (stereo unspecified),active: 22.5 µM
5,O=C(/C=C/c1cn(CC(O)CN2CCCCC2)c2ccccc12)c1cccs1 (stereo unspecified),inactive
6,Cc1cc(NC(=O)/C=C/c2ccc(Br)cc2)no1,"inconclusive: 8.95 µM [activator, partial curve, poor fit]"
7,COc1ccc(N2CCN(c3oc(COc4ccccc4Cl)nc3C#N)CC2)cc1,"inconclusive: 22.5 µM [activator, partial curve, poor fit]"
8,COC(=O)[C@H](Cc1ccccc1)NC(=O)N1CCCCC1C (stereo partly specified),inactive
9,Cc1cccc(C(=O)NNC(=O)c2ccccc2)c1,"inconclusive: 22.5 µM [activator, partial curve, poor fit]"
10,Cc1ccc(NC(=S)c2nc3ccccc3s2)cc1,active: 0.711 µM
11,CCCCOC(=O)c1ccc(N=Nc2c(C)c(C#N)c(O)[nH]c2=O)cc1,"inconclusive: 15.9 µM [activator, partial curve]"
12,Cc1cc2nc(CCN3CCOCC3)n(S(=O)(=O)c3ccc(C(C)(C)C)cc3)c2cc1C,"inconclusive: 20 µM [activator, partial curve, poor fit]"
13,O=C(Nc1ccc(Cl)cc1)c1ccncc1,"inconclusive: 20 µM [activator, single point]"
14,O=C1NC(=Nc2ccc(O)cc2)S/C1=C\C=C\c1ccco1,"inconclusive: 15.9 µM [activator, partial curve, poor fit]"
15,COc1ccc(/C=C/c2nnc(NC(=O)CSc3ccc(Cl)cc3)s2)cc1,"inconclusive: 5.65 µM [activator, partial curve, poor fit]"
16,CN(c1ccccc1)S(=O)(=O)c1ccc(C(=O)NCCc2ccccc2)cc1,"inconclusive: 17.9 µM [activator, partial curve, poor fit]"

row,Structure (SMILES),Potency
1,Cc1c(C(=O)Nc2ccc(-c3nnc4n3CCCCC4)cc2)oc2ccc(Br)cc12,"inconclusive: 28.3 µM [activator, partial curve, poor fit]"
2,O=C(Cn1nc(C(=O)O)c2ccccc2c1=O)Nc1nc(-c2ccccc2)cs1,"inconclusive: 25.2 µM [activator, partial curve, poor fit]"
3,CCN1CCN(C(=O)c2ccc3c(=O)n(CCC4=CCCCC4)c(=O)[nH]c3c2)CC1,"inconclusive: 22.5 µM [activator, partial curve, poor fit]"
4,COc1ccc(N/C=C(\C#N)c2nc3ccccc3n2C)c(OC)c1,"inconclusive: 12.6 µM [activator, partial curve, poor fit]"
5,CSc1cccc(NC(=O)c2c(Cl)cnn2C)c1,"inconclusive: 20 µM [activator, partial curve, poor fit]"
6,O=C(/C=C/c1ccccc1)NCCc1ccc2c(c1)OCCO2,inactive
7,O=c1[nH]c(=O)n(Cc2ccco2)c2c1C(C(F)(F)F)(C(F)(F)F)N=C(c1ccc(F)cc1)N2,inactive
8,Cc1ccsc1C(=O)N1CCc2ccccc2C1,"inconclusive: 22.5 µM [activator, partial curve, poor fit]"
9,O=C(Cn1cnc2cc([N+](=O)[O-])ccc2c1=O)NCc1ccc(Cl)cc1,inactive
10,COC(=O)C(O)(c1ccc(N(C)S(=O)(=O)c2ccccc2)cc1)C(F)(F)F (stereo unspecified),"inconclusive: 17.9 µM [activator, partial curve, poor fit]"
11,O=C(NC1CCCC1)c1cc(Cl)ccc1[N+](=O)[O-],inactive
12,O=C(Nc1ccc2oc(-c3ccccc3)nc2c1)c1ccc2c(c1)OCCO2,"inconclusive: 10 µM [activator, partial curve]"
13,CSc1nc2cc3c(cc2n1C(=O)c1ccc(C)cc1)OCCO3,"inconclusive: 22.5 µM [activator, partial curve, poor fit]"
14,Cn1ncc(Cl)c1C(=O)Nc1ccc(Cl)cn1,"inconclusive: 20 µM [activator, partial curve, poor fit]"
15,O=S(=O)(c1ccsc1)N1CC=C(c2ccccc2)CC1,"inconclusive: 31.8 µM [activator, partial curve, poor fit]"

# At a glance, part of the list above.
row,Structure (SMILES),Potency
4,COc1ccc(N/C=C(\C#N)c2nc3ccccc3n2C)c(OC)c1,"inconclusive: 12.6 µM [activator, partial curve, poor fit]"
5,CSc1cccc(NC(=O)c2c(Cl)cnn2C)c1,"inconclusive: 20 µM [activator, partial curve, poor fit]"
